The values that follow come from paper doi:10.1101/2022.03.17.484690.

The target of the experiment is T1, DUF581-9-myc (Arabidopsis thaliana) (UniProt O80506).
T1 sequence: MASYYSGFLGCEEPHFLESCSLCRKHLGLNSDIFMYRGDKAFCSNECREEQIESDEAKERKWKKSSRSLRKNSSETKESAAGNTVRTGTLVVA
Kind of experiment: affinity purification with mass spectrometry.

No constants are given. Whether binding was seen depends on the method and setting. In cells and extracts the contact can be indirect. These calls come from enrichment with a bait or labelling near it, and not all partners need be listed. Tags and fused reporters may be left off the sequences shown.

B1: KIN10 (protein, UniProt Q38997 1-512)
chain: MDGSGTGSRSGVESILPNYKLGRTLGIGSFGRVKIAEHALTGHKVAIKILNRRKIKNMEMEEKVRREIKILRLFMHPHIIRLYEVIETPTDIYLVMEYVNSGELFDYIVEKGRLQEDEARNFFQQIISGVEYCHRNMVVHRDLKPENLLLDSKCNVKIADFGLSNIMRDGHFLKTSCGSPNYAAPEVISGKLYAGPEVDVWSCGVILYALLCGTLPFDDENIPNLFKKIKGGIYTLPSHLSPGARDLIPRMLVVDPMKRVTIPEIRQHPWFQAHLPRYLAVPPPDTVQQAKKIDEEILQEVINMGFDRNHLIESLRNRTQNDGTVTYYLILDNRFRASSGYLGAEFQETMEGTPRMHPAESVASPVSHRLPGLMEYQGVGLRSQYPVERKWALGLQSRAHPREIMTEVLKALQDLNVCWKKIGHYNMKCRWVPNSSADGMLSNSMHDNNYFGDESSIIENEAAVKSPNVVKFEIQLYKTRDDKYLLDLQRVQGPQFLFLDLCAAFLAQLRVL
B1: the binding result is recorded as “binds”.
